Laboratory results taken from paper PMC8992272, “Stabilities of Three Key Biological Trisulfides with Implications for Their Roles in the Release of Hydrogen Sulfide and Bioaccumulation of Sulfane Sulfur” (ACS Omega, 2022).

Test: H2S release in the presence of cysteine measured with an H2S-sensitive electrode
[1] = initial concentration 40 μM, excess cysteine, pH 6.7, uncapped
[2] = 50 μM trisulfide, 10 equiv cysteine, water buffered at pH 6.7, uncapped

CC(=O)NC(CSSSSCC(NC(C)=O)C(=O)O)C(=O)O (stereo not drawn) [NAC tetrasulfide, N-Acetylcysteine Tetrasulfide]
peak H2S concentration [1]: 74 µM
peaking time of H2S [1]: 56 min

CC(=O)N[C@@H](CSSSC[C@H](NC(C)=O)C(=O)O)C(=O)O [NAC trisulfide, N-Acetylcysteine Trisulfide]
peak concentration of H2S [2]: 49 µM
peaking time of H2S [2]: 46 min

N[C@@H](CSSSC[C@H](N)C(=O)O)C(=O)O [cysteine trisulfide, Cysteine Trisulfide]
peak concentration of H2S [2]: 49 µM
peaking time of H2S [2]: 46 min
